# Screen size: about 320,000 compounds; about 2,100 (0.66%) were called active. Inconclusive results, whose numbers are uncertain, are shown with a selection of clear calls. Calls come from the whole dose curve; as a rule, active = well fitted inhibition curve with a large enough effect in the signal ratio, with a control signal flat (not every such curve was filed as active); inconclusive = small, poorly fitted or top-dose-only effect, or effect the other way, or a change in a side signal; inactive = flat fitted curve, though single readings scatter; the % refers to the signal ratio. A potency beside an inconclusive call is a rough fit, not a confirmed value.
# Assay: qHTS Assay for Lipid Storage Modulators in Drosophila S3 Cells
# Conditions: BODIPY lipid droplet fluorescence, 18-24 h, cells fed with added oleic acid; lipid storage change, negative = inhibition: at 46.1 µM (top of the series) unless noted
# How it was run: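 Laser-scanning cytometry quantifies lipid droplet accumulation (500–530 nm total intensity; droplet/cell object ratio) in oleic acid-fed (400 uM added) Drosophila S3 cells treated with a concentration series. 20 uM Triacsin C defined 100% inhibition.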
# % is set by controls: 0 for no effect and ±100 for the full control effect; potency is the fitted concentration of half-maximal effect.
Structure (SMILES),"lipid storage change, negative = inhibition",Potency
CCn1cc(/C=N\NC(=O)Cc2ccc([N+](=O)[O-])cc2)c(C)n1,inconclusive: -2.49%,–
CCOc1cc(S(=O)(=O)N2CCN=C2Cc2ccccc2)ccc1F,inconclusive: -9.55%,–
COc1ccc(C(C)=O)cc1COC(=O)c1cc2ccccc2cc1O,–,active: 20.6 µM
O=C(NCc1ccco1)c1cc(S(=O)(=O)N2CCCC2)ccc1Cl,inconclusive: -33.6%,–
N#Cc1ccc(COC(=O)c2cnc(Cl)c(Cl)c2)cc1,inconclusive: -58.3%,–
COC(=O)C1=C(C)N(Cc2ccccc2)C(=NCc2cc(OC)c(OC)c(OC)c2)N[C@H]1CCc1ccccc1,–,"inconclusive: 20.6 µM [falling, single point]"
Cc1ccc(N2CC(C(=O)OCC(=O)c3ccc([N+](=O)[O-])cc3)CC2=O)cc1 (stereo unspecified),inconclusive: -12%,–
Nc1cc(=O)[nH]c(SCc2nnc(-c3ccccc3)o2)n1,–,"inconclusive: 6.51 µM [falling, single point]"
CCOC(=O)CN(c1ccccn1)S(=O)(=O)c1ccccc1,inconclusive: 8.24%,–
Cc1[nH]n(-c2ccccc2)c(=O)c1N=Nc1ccc(F)cc1,–,"inconclusive: 16.4 µM [cytotoxic, partial curve]"
Cc1ccn2c(NC3CCCC3)c(-c3cccs3)nc2c1,inconclusive: -5.22%,–
COC(=O)[C@H](CCSC)NC(=O)Cn1ccc(NC(=O)OCc2ccccc2)nc1=O,–,"inconclusive: 0.0046 µM [activator, full curve, poor fit]"
Cc1cc(S(=O)(=O)N2CCOCC2)ccc1NC(=O)c1ccc(F)cc1,–,"inconclusive: 4.61 µM [activator, partial curve]"
CCOC(=O)[C@@H]1[C@H]2COc3cc(OC)ccc3[C@@H]2N2C(=O)N(c3ccc(C(F)(F)F)cc3)C(=O)[C@@]12C,inconclusive: -3.22%,–
Cc1ccccc1Nc1c(-c2ccc(N3CCOCC3)cc2)nc2cnccn12,inconclusive: 42.5%,–
CC(C)OC(=O)CSc1nc(-c2ccc(F)cc2)nc2ccc(F)cc12,inconclusive: 22.6%,–
COc1ccc(C(C[N+](=O)[O-])c2c(C)cc3ccccn23)cc1 (stereo unspecified),inconclusive: 19.8%,–
CCc1cc(=O)[nH]c(SCC(=O)Nc2ccc3c(c2)OCCO3)n1,inconclusive,–
CCCN(C(=O)C1CCCN(c2ncnc3c2nc2n3CCCCC2)C1)c1ccc(F)cc1 (stereo unspecified),–,"inconclusive: 0.731 µM [activator, full curve]"
CCn1c(SCC(=O)c2ccc(Cl)s2)nnc1-c1cccs1,inconclusive: 33.9%,–
CC1CN(C(=O)c2cccn(Cc3c(Cl)cccc3Cl)c2=O)CC(C)O1 (stereo unspecified),–,"inconclusive: 29.1 µM [falling, single point]"

# 2 records drawn at random from the list so far:
Structure (SMILES),"lipid storage change, negative = inhibition",Potency
COc1ccc(C(C[N+](=O)[O-])c2c(C)cc3ccccn23)cc1 (stereo unspecified),inconclusive: 19.8%,–
CCOC(=O)[C@@H]1[C@H]2COc3cc(OC)ccc3[C@@H]2N2C(=O)N(c3ccc(C(F)(F)F)cc3)C(=O)[C@@]12C,inconclusive: -3.22%,–

# Reference: PubChem BioAssay AID2685 (National Center for Advancing Translational Sciences (NCATS), 2010)
